{"source": "PubChem BioAssay AID720710, VTT Finland – 2013", "aim": "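Knock-downs that leave cyclin E-high cells sensitive to replication stress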 (primary screen)", "system": "human U-2 OS bone cancer cells, parental and a cyclin E (CCNE1) overexpressing line", "reagents": "single siRNA against human genes, 1 µM siRNA in the printed spot mix", "timing": "67 h", "treatment": "half the arrays: hydroxyurea 2 mM for 16 h, then 3 h recovery; other arrays untreated", "measurement": "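DNA synthesis measured as imaged EdU uptake per nucleus (DAPI) at 67 h, normalised to subgrid median and given as z-score versus non-targeting controls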", "reading the numbers": "EdU z-score, cyclin E line, hydroxyurea: higher = more DNA synthesis than non-targeting controls", "note": "Here is one part, drawn at random, of about 1,380 reagents. 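One array per condition without replicates; hydroxyurea arrays received 2 mM for 16 h plus 3 h recovery.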 Not all columns of the deposit are shown."}
{"Gene": "RING1", "PubChem SID": "SID164222656", "EdU z-score, cyclin E line, hydroxyurea": -0.746}
{"Gene": "RING1", "PubChem SID": "SID164222657", "EdU z-score, cyclin E line, hydroxyurea": 1.8}
{"Gene": "BRIP1", "PubChem SID": "SID164221736", "EdU z-score, cyclin E line, hydroxyurea": -2.02}
{"Gene": "BRIP1", "PubChem SID": "SID164221737", "EdU z-score, cyclin E line, hydroxyurea": 0.0853}

Entries listed so far whose gene name begins with B or b (2):
{"Gene": "BRIP1", "PubChem SID": "SID164221736", "EdU z-score, cyclin E line, hydroxyurea": -2.02}
{"Gene": "BRIP1", "PubChem SID": "SID164221737", "EdU z-score, cyclin E line, hydroxyurea": 0.0853}

Continued.
{"Gene": "HDAC2", "PubChem SID": "SID164222050", "EdU z-score, cyclin E line, hydroxyurea": -2.59}
{"Gene": "HDAC2", "PubChem SID": "SID164222051", "EdU z-score, cyclin E line, hydroxyurea": 1.08}
{"Gene": "CEBPG", "PubChem SID": "SID164221814", "EdU z-score, cyclin E line, hydroxyurea": 0.33}
{"Gene": "CEBPG", "PubChem SID": "SID164221815", "EdU z-score, cyclin E line, hydroxyurea": 0.602}
{"Gene": "H2BC4", "PubChem SID": "SID164222094", "EdU z-score, cyclin E line, hydroxyurea": -0.289}
{"Gene": "H2BC4", "PubChem SID": "SID164222095", "EdU z-score, cyclin E line, hydroxyurea": 0.791}
{"Gene": "GEN1", "PubChem SID": "SID164222002", "EdU z-score, cyclin E line, hydroxyurea": -0.649}
{"Gene": "GEN1", "PubChem SID": "SID164222003", "EdU z-score, cyclin E line, hydroxyurea": -0.621}
